# Laboratory results: the supplement of paper PMC12595434, “Development of retinoid nuclear receptor pathway antagonists through targeting aldehyde dehydrogenase 1A3” (iScience, 2025)
# The chains behind the UniProt entries cited, without tags or fusion partners. Where a name states a change or a piece, a line headed by the entry shows the natural chain unless it says otherwise.
# UniProt O14957: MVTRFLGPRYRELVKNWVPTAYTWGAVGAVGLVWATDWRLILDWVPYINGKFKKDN
# UniProt O14775: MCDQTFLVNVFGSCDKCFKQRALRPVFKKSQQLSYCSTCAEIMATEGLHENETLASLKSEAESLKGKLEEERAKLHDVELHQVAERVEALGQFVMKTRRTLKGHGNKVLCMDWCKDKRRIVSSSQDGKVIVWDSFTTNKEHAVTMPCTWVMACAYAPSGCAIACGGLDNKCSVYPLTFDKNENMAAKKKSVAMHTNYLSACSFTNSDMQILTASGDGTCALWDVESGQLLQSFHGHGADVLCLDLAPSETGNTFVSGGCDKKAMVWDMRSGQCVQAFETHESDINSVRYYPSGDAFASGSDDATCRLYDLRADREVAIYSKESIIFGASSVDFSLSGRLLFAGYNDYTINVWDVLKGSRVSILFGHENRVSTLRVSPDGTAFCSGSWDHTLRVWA
# UniProt O00566: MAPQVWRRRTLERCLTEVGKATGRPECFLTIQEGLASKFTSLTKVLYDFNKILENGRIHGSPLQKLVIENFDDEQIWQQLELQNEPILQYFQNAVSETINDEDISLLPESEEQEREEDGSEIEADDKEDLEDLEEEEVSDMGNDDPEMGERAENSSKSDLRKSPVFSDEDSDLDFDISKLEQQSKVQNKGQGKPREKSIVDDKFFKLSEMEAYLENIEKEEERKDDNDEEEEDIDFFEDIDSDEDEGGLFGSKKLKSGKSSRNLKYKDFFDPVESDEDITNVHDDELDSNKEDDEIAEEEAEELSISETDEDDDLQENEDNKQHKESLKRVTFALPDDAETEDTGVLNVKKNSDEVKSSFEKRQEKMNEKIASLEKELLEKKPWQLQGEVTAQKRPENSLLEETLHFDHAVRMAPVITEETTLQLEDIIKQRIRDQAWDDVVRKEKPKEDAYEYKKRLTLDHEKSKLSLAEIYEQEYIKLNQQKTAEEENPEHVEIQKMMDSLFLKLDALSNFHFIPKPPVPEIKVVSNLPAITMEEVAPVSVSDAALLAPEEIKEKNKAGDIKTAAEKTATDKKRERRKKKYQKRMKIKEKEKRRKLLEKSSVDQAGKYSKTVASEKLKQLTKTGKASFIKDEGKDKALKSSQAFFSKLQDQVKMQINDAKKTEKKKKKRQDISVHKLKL
# UniProt O14964, whole entry: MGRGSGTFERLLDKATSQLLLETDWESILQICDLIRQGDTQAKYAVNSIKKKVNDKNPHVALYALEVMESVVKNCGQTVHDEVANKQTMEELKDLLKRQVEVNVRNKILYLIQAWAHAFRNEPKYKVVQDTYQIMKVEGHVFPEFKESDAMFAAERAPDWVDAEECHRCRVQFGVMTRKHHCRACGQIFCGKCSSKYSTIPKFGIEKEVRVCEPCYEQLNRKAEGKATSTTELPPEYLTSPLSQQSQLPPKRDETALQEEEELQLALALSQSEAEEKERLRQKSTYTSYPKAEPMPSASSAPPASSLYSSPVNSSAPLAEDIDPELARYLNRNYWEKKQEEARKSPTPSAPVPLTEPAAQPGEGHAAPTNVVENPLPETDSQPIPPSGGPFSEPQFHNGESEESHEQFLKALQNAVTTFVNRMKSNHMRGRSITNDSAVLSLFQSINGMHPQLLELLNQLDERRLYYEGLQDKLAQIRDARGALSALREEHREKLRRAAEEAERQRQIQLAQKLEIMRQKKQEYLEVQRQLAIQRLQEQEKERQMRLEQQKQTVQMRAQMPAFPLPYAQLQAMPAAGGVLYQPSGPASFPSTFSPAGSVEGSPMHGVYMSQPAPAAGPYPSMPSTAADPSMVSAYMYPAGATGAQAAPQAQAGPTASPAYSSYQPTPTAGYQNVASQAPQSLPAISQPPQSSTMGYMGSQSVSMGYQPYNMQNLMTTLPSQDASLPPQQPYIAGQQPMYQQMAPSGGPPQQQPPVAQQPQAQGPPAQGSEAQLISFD
# UniProt O15294: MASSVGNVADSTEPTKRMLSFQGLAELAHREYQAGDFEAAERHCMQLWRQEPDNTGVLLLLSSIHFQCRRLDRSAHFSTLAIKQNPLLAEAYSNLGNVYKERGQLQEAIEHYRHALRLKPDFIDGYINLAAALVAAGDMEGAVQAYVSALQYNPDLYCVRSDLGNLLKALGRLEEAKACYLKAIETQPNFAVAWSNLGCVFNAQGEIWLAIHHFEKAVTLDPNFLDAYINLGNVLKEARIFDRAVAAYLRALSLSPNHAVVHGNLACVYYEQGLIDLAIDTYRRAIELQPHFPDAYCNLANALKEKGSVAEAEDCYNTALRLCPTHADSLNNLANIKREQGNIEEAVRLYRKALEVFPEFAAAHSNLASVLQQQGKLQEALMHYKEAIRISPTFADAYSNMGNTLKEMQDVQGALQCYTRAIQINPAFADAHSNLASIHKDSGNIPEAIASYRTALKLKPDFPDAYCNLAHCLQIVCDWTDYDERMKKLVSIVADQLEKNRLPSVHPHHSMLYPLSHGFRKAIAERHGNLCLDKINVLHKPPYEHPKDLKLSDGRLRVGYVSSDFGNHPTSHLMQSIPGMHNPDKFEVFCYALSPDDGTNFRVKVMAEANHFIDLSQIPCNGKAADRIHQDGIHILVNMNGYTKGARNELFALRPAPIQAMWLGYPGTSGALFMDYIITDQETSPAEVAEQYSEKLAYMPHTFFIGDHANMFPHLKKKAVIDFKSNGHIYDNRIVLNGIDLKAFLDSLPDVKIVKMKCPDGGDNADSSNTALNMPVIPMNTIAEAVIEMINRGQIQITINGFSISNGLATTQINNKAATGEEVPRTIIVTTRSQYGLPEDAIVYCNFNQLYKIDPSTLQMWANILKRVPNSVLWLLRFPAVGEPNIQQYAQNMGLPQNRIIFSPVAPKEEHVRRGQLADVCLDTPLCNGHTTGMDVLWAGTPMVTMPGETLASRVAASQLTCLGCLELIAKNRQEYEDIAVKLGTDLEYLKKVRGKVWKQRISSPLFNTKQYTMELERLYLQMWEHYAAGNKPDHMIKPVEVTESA
# UniProt O14656: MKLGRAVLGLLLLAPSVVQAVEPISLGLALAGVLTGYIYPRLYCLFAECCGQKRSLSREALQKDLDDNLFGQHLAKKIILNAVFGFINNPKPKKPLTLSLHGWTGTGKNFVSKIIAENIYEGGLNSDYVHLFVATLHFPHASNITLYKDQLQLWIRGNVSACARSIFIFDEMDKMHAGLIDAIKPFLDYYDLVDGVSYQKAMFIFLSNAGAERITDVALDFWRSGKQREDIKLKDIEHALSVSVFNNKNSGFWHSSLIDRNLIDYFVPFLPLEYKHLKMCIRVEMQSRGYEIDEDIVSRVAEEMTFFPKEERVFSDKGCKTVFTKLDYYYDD
# UniProt O14939: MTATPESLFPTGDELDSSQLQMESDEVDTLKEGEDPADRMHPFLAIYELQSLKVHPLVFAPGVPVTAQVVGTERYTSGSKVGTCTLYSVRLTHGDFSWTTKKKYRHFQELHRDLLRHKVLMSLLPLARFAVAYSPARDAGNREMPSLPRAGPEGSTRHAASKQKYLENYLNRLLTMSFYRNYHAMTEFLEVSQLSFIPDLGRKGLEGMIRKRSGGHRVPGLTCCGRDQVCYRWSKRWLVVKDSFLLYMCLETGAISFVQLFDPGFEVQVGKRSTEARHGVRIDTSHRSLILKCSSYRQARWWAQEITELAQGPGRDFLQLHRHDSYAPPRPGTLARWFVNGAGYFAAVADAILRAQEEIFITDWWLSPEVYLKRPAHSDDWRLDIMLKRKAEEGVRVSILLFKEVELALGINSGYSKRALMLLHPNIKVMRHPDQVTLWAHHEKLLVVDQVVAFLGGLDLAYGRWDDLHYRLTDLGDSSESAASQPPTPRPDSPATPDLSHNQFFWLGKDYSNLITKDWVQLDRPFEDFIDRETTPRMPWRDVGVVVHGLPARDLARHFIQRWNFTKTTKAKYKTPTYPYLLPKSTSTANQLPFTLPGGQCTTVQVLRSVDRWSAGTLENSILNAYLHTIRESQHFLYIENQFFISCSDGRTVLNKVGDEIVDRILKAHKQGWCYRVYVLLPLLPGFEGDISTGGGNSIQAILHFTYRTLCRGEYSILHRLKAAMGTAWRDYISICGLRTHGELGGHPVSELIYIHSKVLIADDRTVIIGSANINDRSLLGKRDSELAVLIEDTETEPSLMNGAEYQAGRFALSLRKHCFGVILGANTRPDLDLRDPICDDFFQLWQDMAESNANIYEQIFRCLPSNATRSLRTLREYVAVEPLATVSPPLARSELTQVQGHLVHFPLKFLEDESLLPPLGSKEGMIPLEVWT
# UniProt O14678: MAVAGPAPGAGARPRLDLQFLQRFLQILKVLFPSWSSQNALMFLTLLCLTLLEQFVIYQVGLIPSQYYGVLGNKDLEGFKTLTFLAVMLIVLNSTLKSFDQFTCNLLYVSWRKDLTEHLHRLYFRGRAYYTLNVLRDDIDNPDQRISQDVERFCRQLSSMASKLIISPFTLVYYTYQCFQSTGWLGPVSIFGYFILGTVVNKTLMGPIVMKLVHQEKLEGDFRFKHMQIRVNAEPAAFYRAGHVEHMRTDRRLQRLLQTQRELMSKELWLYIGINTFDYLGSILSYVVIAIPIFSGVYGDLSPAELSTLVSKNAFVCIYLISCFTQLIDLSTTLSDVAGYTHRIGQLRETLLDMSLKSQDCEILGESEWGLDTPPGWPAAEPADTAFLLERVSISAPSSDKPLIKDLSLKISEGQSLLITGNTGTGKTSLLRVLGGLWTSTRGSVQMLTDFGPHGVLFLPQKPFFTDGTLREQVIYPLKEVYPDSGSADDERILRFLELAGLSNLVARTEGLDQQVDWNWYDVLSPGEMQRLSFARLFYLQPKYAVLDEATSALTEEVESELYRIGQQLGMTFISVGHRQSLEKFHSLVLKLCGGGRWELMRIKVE
# UniProt O00462: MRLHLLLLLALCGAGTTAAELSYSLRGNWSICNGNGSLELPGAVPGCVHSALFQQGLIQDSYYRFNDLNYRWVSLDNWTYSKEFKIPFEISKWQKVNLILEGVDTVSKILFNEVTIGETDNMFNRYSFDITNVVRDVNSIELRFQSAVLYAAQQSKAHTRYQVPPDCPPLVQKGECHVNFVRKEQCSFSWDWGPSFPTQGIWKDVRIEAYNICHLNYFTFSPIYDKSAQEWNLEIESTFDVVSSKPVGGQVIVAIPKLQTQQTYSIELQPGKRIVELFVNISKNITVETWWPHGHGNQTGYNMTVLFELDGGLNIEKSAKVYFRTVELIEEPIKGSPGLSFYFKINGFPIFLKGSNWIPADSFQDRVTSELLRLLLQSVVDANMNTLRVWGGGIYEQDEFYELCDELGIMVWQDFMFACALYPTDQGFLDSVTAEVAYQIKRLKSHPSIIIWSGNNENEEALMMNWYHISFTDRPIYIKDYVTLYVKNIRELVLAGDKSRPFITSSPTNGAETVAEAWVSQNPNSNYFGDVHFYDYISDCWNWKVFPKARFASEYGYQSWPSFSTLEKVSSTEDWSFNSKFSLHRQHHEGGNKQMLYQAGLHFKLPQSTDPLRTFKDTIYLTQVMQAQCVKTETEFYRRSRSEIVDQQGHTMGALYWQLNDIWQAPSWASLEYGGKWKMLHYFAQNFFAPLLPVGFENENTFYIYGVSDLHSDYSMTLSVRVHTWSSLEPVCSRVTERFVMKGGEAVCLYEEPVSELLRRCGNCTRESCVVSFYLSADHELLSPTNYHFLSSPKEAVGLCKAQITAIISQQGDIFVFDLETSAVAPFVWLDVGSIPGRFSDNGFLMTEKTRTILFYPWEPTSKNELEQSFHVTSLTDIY
# UniProt O15530: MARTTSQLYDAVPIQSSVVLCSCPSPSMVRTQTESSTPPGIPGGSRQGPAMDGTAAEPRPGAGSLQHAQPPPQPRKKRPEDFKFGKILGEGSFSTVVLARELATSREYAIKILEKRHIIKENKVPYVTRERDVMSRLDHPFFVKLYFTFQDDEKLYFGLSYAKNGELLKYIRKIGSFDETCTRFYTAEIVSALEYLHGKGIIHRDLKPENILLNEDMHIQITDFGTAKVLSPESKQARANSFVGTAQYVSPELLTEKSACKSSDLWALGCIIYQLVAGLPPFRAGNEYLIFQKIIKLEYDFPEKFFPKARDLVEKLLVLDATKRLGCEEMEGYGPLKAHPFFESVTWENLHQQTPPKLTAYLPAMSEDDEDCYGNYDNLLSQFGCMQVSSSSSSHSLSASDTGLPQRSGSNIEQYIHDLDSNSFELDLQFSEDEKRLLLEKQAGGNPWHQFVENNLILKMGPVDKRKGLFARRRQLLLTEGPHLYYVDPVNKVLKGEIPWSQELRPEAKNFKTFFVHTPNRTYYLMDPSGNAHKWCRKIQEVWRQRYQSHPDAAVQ
# UniProt A6NDG6: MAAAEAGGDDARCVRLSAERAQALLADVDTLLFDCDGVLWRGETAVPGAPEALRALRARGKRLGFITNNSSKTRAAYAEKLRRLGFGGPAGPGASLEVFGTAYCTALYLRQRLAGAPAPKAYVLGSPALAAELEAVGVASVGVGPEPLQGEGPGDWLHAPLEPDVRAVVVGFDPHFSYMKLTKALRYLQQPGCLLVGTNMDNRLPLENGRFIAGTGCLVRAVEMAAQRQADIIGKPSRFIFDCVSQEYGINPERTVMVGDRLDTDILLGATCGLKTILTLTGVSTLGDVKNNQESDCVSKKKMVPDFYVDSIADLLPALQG
# The list shows a part of the results. This is a noisy data set.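 Tm was set to 64 °C where no melting was found, and many curves are irregular.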
# Compound: CCc1cnccc1C(=O)Nc1cc2c(cc1F)NC(=O)CC2
# Test: melting temperature shift (DMSO Tm minus MBE1-treated Tm) in cellular thermal proteome profiling; higher = less thermal stabilization by MBE1 (negative = stabilized by MBE1)
# Conditions: A375
Target,melting temperature shift (MBE1 concentration: 100 nM) [°C],melting temperature shift (MBE1 concentration: 1 uM) [°C]
UniProt O43303,0.519,–
UniProt O43298,-3.36,-1.04
POLR3A (UniProt O14802),-0.757,-0.461
PDCD5 (UniProt O14737),0,–
EIF3H (UniProt O15372),0.134,-0.0244
DFFA (UniProt O00273),-1.65,-0.209
DAPK3 (UniProt O43293),-0.673,-0.588
UniProt O43167,–,2.36
NFIB (UniProt O00712),-3.4,-3.34
SLC33A1 (UniProt O00400),-1.71,-0.945
UniProt O15213,-0.537,0.824
AGRN (UniProt O00468),0.335,0.202
KIF2A (UniProt O00139),0.165,0.208
PFAS (UniProt O15067),1.4,1.18
GPAA1 (UniProt O43292),-0.545,0.818
CBX4 (UniProt O00257),-0.448,-0.0192
PIK3C2A (UniProt O00443),-0.923,0.198
HDAC3 (UniProt O15379),-1.07,-0.231
GNPAT (UniProt O15228),-0.537,0.943
PDLIM1 (UniProt O00151),-4.12,-4.01
UniProt O14653,-1.5,0.287
UniProt O14957,-0.318,-4.2
RNMT (UniProt O43148),-1.61,-0.586

Target,melting temperature shift (MBE1 concentration: 100 nM) [°C],melting temperature shift (MBE1 concentration: 1 uM) [°C]
CTIF (UniProt O43310),0.335,-0.516
UniProt O00391,-2.05,-0.429
SEC16A (UniProt O15027),-0.79,0.16
TOR1B (UniProt O14657),-1.37,0.597
UniProt O14775,0.507,0.104
UniProt O14523,-1.12,0
UniProt A6H8Y1,0.568,0.813
DYNC1LI2 (UniProt O43237),1.03,1.22
UniProt A6NCE7,-0.0488,2.28
UniProt A6NDB9,-0.567,-3.98
ABCC5 (UniProt O15440),-0.543,0.318
TRIM24 (UniProt O15164),-0.333,-0.0641
NDUFS4 (UniProt O43181),-1.62,2.43
INPPL1 (UniProt O15357),-0.739,-0.875
SAP18 (UniProt O00422),3.83,2.38
MPHOSPH10 (UniProt O00566),0.611,0.721
EML1 (UniProt O00423),0.91,0.107
HGS (UniProt O14964),0.733,0.385
SMCHD1 (UniProt A6NHR9),-0.365,-0.308
HAT1 (UniProt O14929),1.01,0.183
OGT (UniProt O15294),0,-0.415
UniProt O15040,0.181,0.148
UniProt O00287,-7.64,-5.29

# Taken from above for reference:
Target,melting temperature shift (MBE1 concentration: 100 nM) [°C],melting temperature shift (MBE1 concentration: 1 uM) [°C]
UniProt A6NCE7,-0.0488,2.28
UniProt A6NDB9,-0.567,-3.98
ABCC5 (UniProt O15440),-0.543,0.318
TRIM24 (UniProt O15164),-0.333,-0.0641
NDUFS4 (UniProt O43181),-1.62,2.43
INPPL1 (UniProt O15357),-0.739,-0.875
SAP18 (UniProt O00422),3.83,2.38

# Additional records follow:

Target,melting temperature shift (MBE1 concentration: 100 nM) [°C],melting temperature shift (MBE1 concentration: 1 uM) [°C]
ACOT8 (UniProt O14734),-0.0733,0.476
CETN3 (UniProt O15182),-3.95,-4.24
BCKDK (UniProt O14874),-0.427,-0.397
UniProt O14965,-0.709,0.891
AIP (UniProt O00170),0.721,-0.311
TOR1A (UniProt O14656),-1.03,-0.664
SPTLC1 (UniProt O15269),0.0244,0.916
TPP1 (UniProt O14773),-0.838,0.644
NDUFS8 (UniProt O00217),-0.183,0.208
UniProt O15020,0.421,0.055
PSMD14 (UniProt O00487),-1.37,-0.263
PIK3C2B (UniProt O00750),-0.885,0.0591
UniProt O14939,0.678,0.397
PDHX (UniProt O00330),-0.988,0.598
UniProt O15554,-3.23,-2.03
IFIT3 (UniProt O14879),0,0.428
NME4 (UniProt O00746),-1.11,-2.65
UniProt O43347,-2.62,-0.336
UniProt O14678,-0.577,1.04
MANBA (UniProt O00462),-1.4,0.568
UniProt O15530,-0.293,0.0794
KMT2D (UniProt O14686),1.28,-0.47
ABLIM1 (UniProt O14639),-1.45,0.861

Target,melting temperature shift (MBE1 concentration: 100 nM) [°C],melting temperature shift (MBE1 concentration: 1 uM) [°C]
CASK (UniProt O14936),-0.483,0.171
GTPBP1 (UniProt O00178),1.22,0.421
CD3EAP (UniProt O15446),-12.4,-6.22
GOLIM4 (UniProt O00461),-0.543,-0.0872
NDUFAB1 (UniProt O14561),-1.27,-1.98
NKRF (UniProt O15226),0.0961,-0.115
CHD1 (UniProt O14646),-0.0384,-0.574
UniProt O00507,0.134,-0.244
DVL2 (UniProt O14641),-0.521,0.165
ACOT7 (UniProt O00154),-1.48,-0.841
SDCBP (UniProt O00560),0.999,0.434
STX16 (UniProt O14662),0.91,0.611
TTI1 (UniProt O43156),-1.21,-0.516
UniProt A8K0Z3,-1.25,-0.677
AP3D1 (UniProt O14617),1.04,0.537
TNPO2 (UniProt O14787),-0.793,-0.296
EXOC5 (UniProt O00471),-0.579,-0.325
PGP (UniProt A6NDG6),-1.38,-1.6
UniProt O14786,-1.57,0.183
UniProt O15111,-0.714,-0.353
PIK3CD (UniProt O00329),-1.19,3.33
UniProt O14593,-0.0518,-1.01
UniProt O43294,-2.74,-0.425
